Measured values reported in PubChem BioAssay AID2685 (National Center for Advancing Translational Sciences (NCATS), 2010).
This is one part of the list. Shown are side measurements of this screen, not its main read-out; they come without a call. Most of these compounds were active or inconclusive in the main read-out, so they are no random draw. The note in brackets gives the kind of curve behind each potency; many fits are weak.

Assay: qHTS Assay for Lipid Storage Modulators in Drosophila S3 Cells;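 on cell number change: cells counted by Cell Tracker Red CMTPX staining in the red channel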
Conditions: BODIPY lipid droplet fluorescence, 18-24 h; for cell number change: measured here: cell count max response, cells fed with added oleic acid
Method in brief: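 Drosophila S3 cells loaded with oleic acid (400 uM, as added) and compounds at several concentrations; lipid droplets imaged by 488-nm laser-scanning cytometry, 500–530 nm intensity and object ratio to cell channel. Percent activity normalized to 20 uM Triacsin C.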

[1] = measured here: lipid fluorescence (Fed channel) AC50, cells fed with added oleic acid
[2] = measured here: cell number channel AC50, cells fed with added oleic acid

SMILES | cell number change [%] | AC50 [1] | AC50 [2]
COc1ccc(OC)c(NC(=O)NCCN2CCN(c3ccccc3)CC2)c1 | 6.94 |  | 
c1ccc(-c2ccccc2OCCCN2CCCC2)cc1 | 11.8 | 4.11 µM [rising, partial curve] | 
CC(C)c1ccc(C2CC(=O)c3cnc(NC(=O)c4ccco4)nc3C2)cc1 (stereo unspecified) | 3.36 | 18.4 µM [falling, partial curve] | 
O=C1SCCC1NC(=O)C(c1ccccc1)c1ccccc1 (stereo unspecified) |  | 5.8 µM [falling, partial curve] | 
CCC(=O)N1CCN(c2ccc(NC(=O)c3ccc4c(c3)OCO4)cc2)CC1 | -57.2 | 2.59 µM [falling, partial curve] | 2.91 µM [falling, partial curve]
CCCCn1c(SCc2nc(N)nc(Nc3ccccc3C)n2)nc2ccccc2c1=O | 79.4 | 5.17 µM [rising, partial curve] | 0.13 µM [rising, full curve]
Cc1ccc(CNc2oc(-c3ccco3)nc2S(=O)(=O)c2ccccc2)cc1 | -25.8 | 29.1 µM [falling, single point] | 
COc1cc(C(CC(=O)N2CCCC2)c2c(OC)cc(OC)c3c(-c4ccccc4)cc(=O)oc23)cc(OC)c1OC (stereo unspecified) | -50 | 16.4 µM [falling, single point] | 18.4 µM [falling, single point]
O=C(CSc1nc(-c2cccs2)cc(C(F)(F)F)n1)Nc1cc(OCC(F)(F)F)cc([N+](=O)[O-])c1 | 0.594 | 29.1 µM [falling, single point] | 
CCCCNC(=O)c1ccc(S(=O)(=O)c2ccc(Cl)cc2)c(NC(C)=O)c1 | 20.1 | 1.84 µM [rising, partial curve] | 1.46 µM [rising, partial curve, poor fit]
COc1ccc2ccccc2c1/C=N/NC(=O)c1cc(C)[nH]n1 | -7.54 | 4.11 µM [rising, partial curve, poor fit] | 
CCN(Cc1ccc(OC)c(F)c1)C(C)C(=O)Nc1ccc(S(=O)(=O)N2CCCC2)cc1 (stereo unspecified) | 14.9 |  | 
S=C(NCCc1ccc(Cl)cc1)NCc1ccccc1 | -1.98 | 0.58 µM [rising, single point] | 
O=C(NCCc1ccc2c(c1)OCCO2)c1ccccn1 | -37.3 |  | 5.17 µM [falling, full curve]
O=C1CCC(/C=C/c2ccccc2)=NN1Cc1ccc(F)cc1 | 60.8 |  | 
C=CCNC(=O)CCc1nnc(C2(c3ccc(Cl)cc3)CCC2)o1 | 21.1 | 6.51 µM [falling, single point] | 4.61 µM [falling, single point]
O=C(COc1cc2oc(=O)c3c(c2cc1Cl)CCCC3)NCc1cccnc1 | -7.31 | 1.84 µM [falling, partial curve] | 6.51 µM [falling, single point]
COC(=O)c1ccc(OC)c(NS(=O)(=O)c2ccc(-n3cnnn3)cc2)c1 | 17.1 | 0.206 µM [rising, single point] | 
Cc1cc(-c2nnc(CCC(=O)NC(C)c3cccc4ccccc34)o2)no1 (stereo unspecified) | -0.31 | 0.092 µM [falling, full curve, poor fit] | 
N#CC1CN(C(c2ccccc2)c2ccccc2)C1 | -5.24 |  | 
COc1ccc(/C=N/Nc2nc(C)cc(-c3ccccc3)n2)cc1OC | -30.4 | 16.4 µM [falling, partial curve] | 14.6 µM [falling, single point]
CC(=O)c1ccc(NC(=O)CSc2nc(=O)cc(N)n2-c2ccccc2)cc1 | -39 |  | 
COc1cccc2sc(N(CCCN(C)C)C(=O)CCS(=O)(=O)c3ccccc3)nc12 | -16.7 |  | 
Cc1ccc(OC(=O)c2ccccc2C(=O)OCC(F)(F)C(F)F)cc1 | -26.3 | 0.92 µM [falling, full curve] | 0.291 µM [falling, full curve, poor fit]
CCOC(=O)c1sc(N/N=C/c2ccc(N(C)C)cc2)nc1C | -11.9 | 18.4 µM [falling, partial curve] | 
Cc1cccc2nc(COc3ccc(Cl)c4cccnc34)cn12 |  | 0.0731 µM [rising, partial curve, poor fit] | 0.092 µM [rising, single point]
O=C(Nc1ccccc1C(=O)O)c1cc(S(=O)(=O)N2CCCCC2)c(Cl)cc1Cl | 11.9 | 29.1 µM [rising, single point] | 
Cc1ccc(C)c(NC(=O)CNC(=O)N2CC(=O)Nc3ccccc32)c1 | -6.42 | 29.1 µM [rising, single point] | 
CCn1c(SCC(=O)N(C)C)nc2cc(S(=O)(=O)N3CCCCC3)ccc21 | -15.5 | 0.00517 µM [falling, full curve, poor fit] | 
CCn1c(SCC(=O)Nc2ccccc2OC)nc2ccccc2c1=O | 12 | 0.164 µM [rising, full curve, poor fit] | 

Two successive records out of the list so far, quoted:
SMILES | cell number change [%] | AC50 [1] | AC50 [2]
O=C(Nc1ccccc1C(=O)O)c1cc(S(=O)(=O)N2CCCCC2)c(Cl)cc1Cl | 11.9 | 29.1 µM [rising, single point] | 
Cc1ccc(C)c(NC(=O)CNC(=O)N2CC(=O)Nc3ccccc32)c1 | -6.42 | 29.1 µM [rising, single point] | 
